Measured values: article PMC10425522
Results are given in words; binding and its absence hold for the method and conditions named. In cells and extracts the contact can be indirect. Some entries that bind do so weakly or less than the wild type. For some assays here: Sequences can lack the tags named with a protein. One block for each molecule: values may come before it.

Chains of the proteins cited; added tags and fusions are not shown.
UniProt Q9NYY3: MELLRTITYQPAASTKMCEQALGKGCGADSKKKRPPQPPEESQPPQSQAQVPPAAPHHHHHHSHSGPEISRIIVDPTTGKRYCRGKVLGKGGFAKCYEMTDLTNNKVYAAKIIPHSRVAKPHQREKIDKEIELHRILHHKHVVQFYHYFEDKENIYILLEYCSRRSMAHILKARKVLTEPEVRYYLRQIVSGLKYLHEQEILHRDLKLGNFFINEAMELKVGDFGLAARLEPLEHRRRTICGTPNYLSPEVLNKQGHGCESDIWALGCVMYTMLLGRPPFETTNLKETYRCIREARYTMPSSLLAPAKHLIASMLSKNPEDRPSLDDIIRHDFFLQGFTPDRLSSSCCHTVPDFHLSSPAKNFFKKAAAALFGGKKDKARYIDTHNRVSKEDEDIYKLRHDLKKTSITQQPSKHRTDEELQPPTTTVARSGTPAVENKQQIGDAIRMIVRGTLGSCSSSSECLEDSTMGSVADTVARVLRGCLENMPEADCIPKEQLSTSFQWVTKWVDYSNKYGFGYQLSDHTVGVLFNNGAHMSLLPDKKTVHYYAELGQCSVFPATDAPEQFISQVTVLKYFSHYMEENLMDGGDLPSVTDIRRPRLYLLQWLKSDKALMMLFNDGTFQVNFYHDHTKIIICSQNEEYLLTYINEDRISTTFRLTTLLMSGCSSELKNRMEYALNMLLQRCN
UniProt Q9R012: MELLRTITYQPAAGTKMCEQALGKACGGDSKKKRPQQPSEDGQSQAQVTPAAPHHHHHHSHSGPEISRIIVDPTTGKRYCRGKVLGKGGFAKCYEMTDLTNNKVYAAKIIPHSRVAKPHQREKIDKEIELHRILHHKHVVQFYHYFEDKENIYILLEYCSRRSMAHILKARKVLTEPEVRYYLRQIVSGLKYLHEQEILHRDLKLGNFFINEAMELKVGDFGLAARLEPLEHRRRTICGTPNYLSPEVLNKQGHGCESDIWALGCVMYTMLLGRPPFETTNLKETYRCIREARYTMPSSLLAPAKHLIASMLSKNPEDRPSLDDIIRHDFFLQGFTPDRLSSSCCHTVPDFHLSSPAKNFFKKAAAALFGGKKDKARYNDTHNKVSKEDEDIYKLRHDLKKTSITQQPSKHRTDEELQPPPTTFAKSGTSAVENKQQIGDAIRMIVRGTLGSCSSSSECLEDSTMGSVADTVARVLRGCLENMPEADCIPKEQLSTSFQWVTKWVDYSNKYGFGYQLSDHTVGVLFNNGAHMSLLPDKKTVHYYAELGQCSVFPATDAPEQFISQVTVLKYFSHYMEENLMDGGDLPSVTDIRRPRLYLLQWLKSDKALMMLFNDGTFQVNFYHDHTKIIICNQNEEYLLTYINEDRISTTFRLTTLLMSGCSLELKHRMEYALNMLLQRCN

Experiments:
[1] = target: T1, Nrf2 (endogenous, NRK52E cells) (rat (endogenous in NRK52E)) (UniProt O54968); assay: co-IP; endogenous proteins of NRK52E cells grown 48 h with or without 30 μM cisplatin; immunoprecipitation with anti-Nrf2 antibody, protein A/G agarose, 4 °C; immunoblot for Plk2, Nrf2, p-Nrf2 (S40), p21^cip1
T1 sequence: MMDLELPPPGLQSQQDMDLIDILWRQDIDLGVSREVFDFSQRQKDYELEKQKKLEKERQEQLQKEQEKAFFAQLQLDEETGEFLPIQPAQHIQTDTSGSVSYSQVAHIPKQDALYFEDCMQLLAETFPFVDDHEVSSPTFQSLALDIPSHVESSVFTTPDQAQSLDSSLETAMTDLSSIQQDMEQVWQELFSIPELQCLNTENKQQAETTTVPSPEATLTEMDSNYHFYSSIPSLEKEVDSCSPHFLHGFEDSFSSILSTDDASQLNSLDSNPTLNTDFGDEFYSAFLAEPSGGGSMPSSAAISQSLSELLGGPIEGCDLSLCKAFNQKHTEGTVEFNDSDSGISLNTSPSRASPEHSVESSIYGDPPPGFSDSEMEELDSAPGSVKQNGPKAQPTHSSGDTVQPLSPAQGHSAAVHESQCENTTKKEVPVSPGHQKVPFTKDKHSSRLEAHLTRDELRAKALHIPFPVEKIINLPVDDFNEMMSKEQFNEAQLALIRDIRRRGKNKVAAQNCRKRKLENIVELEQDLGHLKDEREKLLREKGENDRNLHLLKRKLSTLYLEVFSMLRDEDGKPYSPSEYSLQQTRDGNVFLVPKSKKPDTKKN

[2] = target: T2, Nrf2 phosphorylated at Ser40 (endogenous, cisplatin-treated NRK52E cells) (rat (endogenous in NRK52E)) (UniProt O54968); assay: as above
T2 sequence (chain, phosphoserine at 40): T1 sequence

Flag-tagged Plk2 = Flag-tagged Plk2 (UniProt Q9NYY3); assay: co-IP; Flag-tagged Plk2 and/or Myc-tagged Nrf2 expressed in HEK293 cells; immunoprecipitation with anti-Flag antibody, protein A/G agarose, 4 °C; immunoblot with anti-Plk2 and anti-Nrf2

binding [1]: binds | binding [2]: binds
Molecule: Plk2 (endogenous, NRK52E cells) (from UniProt Q9R012 1-682) (enzyme)

binding (Flag-tagged Plk2): binds
B1: Myc-tagged Nrf2 (protein, UniProt Q16236 1-605)
chain: MMDLELPPPGLPSQQDMDLIDILWRQDIDLGVSREVFDFSQRRKEYELEKQKKLEKERQEQLQKEQEKAFFAQLQLDEETGEFLPIQPAQHIQSETSGSANYSQVAHIPKSDALYFDDCMQLLAQTFPFVDDNEVSSATFQSLVPDIPGHIESPVFIATNQAQSPETSVAQVAPVDLDGMQQDIEQVWEELLSIPELQCLNIENDKLVETTMVPSPEAKLTEVDNYHFYSSIPSMEKEVGNCSPHFLNAFEDSFSSILSTEDPNQLTVNSLNSDATVNTDFGDEFYSAFIAEPSISNSMPSPATLSHSLSELLNGPIDVSDLSLCKAFNQNHPESTAEFNDSDSGISLNTSPSVASPEHSVESSSYGDTLLGLSDSEVEELDSAPGSVKQNGPKTPVHSSGDMVQPLSPSQGQSTHVHDAQCENTPEKELPVSPGHRKTPFTKDKHSSRLEAHLTRDELRAKALHIPFPVEKIINLPVVDFNEMMSKEQFNEAQLALIRDIRRRGKNKVAAQNCRKRKLENIVELEQDLDHLKDEKEKLLKEKGENDKSLHLLKKQLSTLYLEVFSMLRDEDGKPYSPSEYSLQQTRDGNVFLVPKSKKPDVKKN

binding [1]: binds | binding [2]: binds
B2: p21^cip1 (endogenous, NRK52E cells) (protein, UniProt Q64315 1-164)
chain: MSDPGDVRPVPHRSKVCRRLFGPVDSEQLSRDCDALMASCLQEARERWNFDFATETPLEGNYVWERVRSPGLPKIYLSPGSRRRDDLGGDKRPSTSSALLQGPGPAPEDHVALSLSCTLVSHAPERPEDSPGGTGTSQGRKRRQTSLTDFYHSKRRLVFCKRKP
